Results are given in words; binding and its absence hold for the method and conditions named. In cells and extracts the contact can be indirect. Here binding means that the protein was enriched with, or labelled near, the bait; the list need not be complete.
Target: biotinylated GFP-caldendrin (UniProt O88751)
Test: affinity purification with mass spectrometry

Chains of the proteins cited; added tags and fusions are not shown.
UniProt O88751: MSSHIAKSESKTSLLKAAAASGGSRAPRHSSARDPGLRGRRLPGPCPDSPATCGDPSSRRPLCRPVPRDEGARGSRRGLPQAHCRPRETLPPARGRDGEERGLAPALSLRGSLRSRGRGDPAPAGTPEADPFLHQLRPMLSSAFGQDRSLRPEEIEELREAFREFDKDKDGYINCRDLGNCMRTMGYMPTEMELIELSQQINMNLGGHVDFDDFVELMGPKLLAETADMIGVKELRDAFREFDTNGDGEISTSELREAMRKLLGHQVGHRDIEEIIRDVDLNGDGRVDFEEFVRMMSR
UniProt P21271: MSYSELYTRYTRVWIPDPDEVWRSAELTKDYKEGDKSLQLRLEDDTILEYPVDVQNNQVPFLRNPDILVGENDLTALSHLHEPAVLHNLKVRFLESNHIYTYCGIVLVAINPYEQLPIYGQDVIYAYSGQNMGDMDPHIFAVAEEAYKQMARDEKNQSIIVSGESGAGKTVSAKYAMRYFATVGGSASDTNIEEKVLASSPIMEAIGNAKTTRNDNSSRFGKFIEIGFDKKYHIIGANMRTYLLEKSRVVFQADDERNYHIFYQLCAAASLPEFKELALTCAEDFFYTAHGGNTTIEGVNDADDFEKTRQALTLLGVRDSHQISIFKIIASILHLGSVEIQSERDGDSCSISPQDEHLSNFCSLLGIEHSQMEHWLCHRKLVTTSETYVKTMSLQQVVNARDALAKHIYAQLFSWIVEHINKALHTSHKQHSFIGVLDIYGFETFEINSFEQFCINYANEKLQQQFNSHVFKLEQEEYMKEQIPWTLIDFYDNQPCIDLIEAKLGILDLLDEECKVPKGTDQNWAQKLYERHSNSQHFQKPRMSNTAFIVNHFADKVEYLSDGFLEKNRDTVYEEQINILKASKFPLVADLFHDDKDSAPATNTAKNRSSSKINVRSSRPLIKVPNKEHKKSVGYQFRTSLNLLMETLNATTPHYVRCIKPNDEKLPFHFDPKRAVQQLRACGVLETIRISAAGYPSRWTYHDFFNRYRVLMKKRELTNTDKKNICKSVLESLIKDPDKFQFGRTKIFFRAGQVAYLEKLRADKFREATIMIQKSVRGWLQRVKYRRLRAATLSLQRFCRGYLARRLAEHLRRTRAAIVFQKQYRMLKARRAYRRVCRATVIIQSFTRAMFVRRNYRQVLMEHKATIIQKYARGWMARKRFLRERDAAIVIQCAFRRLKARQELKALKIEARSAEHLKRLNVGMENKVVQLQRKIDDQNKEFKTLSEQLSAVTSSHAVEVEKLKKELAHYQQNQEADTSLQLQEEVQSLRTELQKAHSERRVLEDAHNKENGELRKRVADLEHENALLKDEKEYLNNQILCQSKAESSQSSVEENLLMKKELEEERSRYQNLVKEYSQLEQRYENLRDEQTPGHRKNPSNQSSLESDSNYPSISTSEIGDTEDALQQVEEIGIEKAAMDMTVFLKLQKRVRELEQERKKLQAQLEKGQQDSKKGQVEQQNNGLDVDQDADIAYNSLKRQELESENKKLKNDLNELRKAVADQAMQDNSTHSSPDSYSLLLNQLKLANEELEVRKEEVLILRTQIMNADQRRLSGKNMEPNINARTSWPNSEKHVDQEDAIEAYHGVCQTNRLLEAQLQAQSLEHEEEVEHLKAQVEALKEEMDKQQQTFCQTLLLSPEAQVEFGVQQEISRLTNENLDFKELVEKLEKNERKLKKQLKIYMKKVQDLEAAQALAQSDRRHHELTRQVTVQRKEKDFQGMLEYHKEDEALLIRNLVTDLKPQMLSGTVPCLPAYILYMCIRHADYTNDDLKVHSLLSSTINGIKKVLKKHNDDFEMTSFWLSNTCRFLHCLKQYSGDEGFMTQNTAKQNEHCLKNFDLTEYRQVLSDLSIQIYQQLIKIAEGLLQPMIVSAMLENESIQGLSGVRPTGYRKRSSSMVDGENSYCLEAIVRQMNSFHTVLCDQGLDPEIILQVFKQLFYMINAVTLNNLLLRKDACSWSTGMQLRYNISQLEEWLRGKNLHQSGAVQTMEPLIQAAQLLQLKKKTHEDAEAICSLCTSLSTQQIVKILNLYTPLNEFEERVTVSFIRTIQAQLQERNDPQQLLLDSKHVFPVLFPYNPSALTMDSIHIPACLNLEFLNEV
UniProt Q64331: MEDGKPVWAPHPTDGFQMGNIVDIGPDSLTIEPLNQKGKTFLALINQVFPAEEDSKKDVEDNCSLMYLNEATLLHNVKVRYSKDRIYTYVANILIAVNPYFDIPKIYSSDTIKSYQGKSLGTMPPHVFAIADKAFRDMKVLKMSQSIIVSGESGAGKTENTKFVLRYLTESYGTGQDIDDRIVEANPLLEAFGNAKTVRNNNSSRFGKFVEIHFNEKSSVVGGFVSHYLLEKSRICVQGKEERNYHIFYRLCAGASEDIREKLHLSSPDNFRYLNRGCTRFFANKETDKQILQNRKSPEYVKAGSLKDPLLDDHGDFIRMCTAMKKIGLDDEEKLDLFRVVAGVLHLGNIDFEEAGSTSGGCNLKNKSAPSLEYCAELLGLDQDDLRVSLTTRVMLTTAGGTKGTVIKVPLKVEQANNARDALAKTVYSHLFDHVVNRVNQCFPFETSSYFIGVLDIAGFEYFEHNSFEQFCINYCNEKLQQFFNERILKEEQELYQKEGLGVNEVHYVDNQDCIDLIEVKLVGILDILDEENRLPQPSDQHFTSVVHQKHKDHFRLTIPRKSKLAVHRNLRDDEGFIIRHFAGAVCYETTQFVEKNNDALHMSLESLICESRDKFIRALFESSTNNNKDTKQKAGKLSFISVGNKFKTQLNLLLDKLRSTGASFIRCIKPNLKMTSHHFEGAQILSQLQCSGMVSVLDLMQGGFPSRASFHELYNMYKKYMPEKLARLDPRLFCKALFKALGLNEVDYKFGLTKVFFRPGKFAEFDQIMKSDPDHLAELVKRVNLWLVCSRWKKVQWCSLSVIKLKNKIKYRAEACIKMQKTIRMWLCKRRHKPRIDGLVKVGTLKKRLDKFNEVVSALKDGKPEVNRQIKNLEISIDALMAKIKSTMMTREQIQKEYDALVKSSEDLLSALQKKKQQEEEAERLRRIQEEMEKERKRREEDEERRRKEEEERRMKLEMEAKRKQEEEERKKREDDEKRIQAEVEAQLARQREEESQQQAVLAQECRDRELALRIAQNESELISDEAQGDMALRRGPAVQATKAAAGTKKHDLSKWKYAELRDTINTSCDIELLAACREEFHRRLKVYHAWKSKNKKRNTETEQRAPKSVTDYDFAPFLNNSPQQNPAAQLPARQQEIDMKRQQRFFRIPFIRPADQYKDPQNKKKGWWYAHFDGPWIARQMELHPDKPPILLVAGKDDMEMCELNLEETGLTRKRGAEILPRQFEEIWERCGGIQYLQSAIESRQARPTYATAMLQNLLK

| binding | Substance |
| --- | --- |
| binds | myosin Vb (endogenous, mouse brain) (from UniProt P21271 1-1818) |
| binds | myosin VI (endogenous, mouse brain) (from UniProt Q64331 1-1262) |
